The results in this text go back to patent US6001359A, “Diagnosis of colon carcinoma using monoclonal antibodies to human influx peptide transporter” (Eli Lilly and Company, priority 1997, dated 1999).

The subject of series [1] is CHO-K1 cells. The series is described as follows: [14C]cephalexin uptake by control CHO-K1 cells (plasmid pRc/RSV).
Series [2] concerns the target T1, influx peptide transporter (Homo sapiens, UniProt Q12864).
T1 sequence (Q12864 23-832): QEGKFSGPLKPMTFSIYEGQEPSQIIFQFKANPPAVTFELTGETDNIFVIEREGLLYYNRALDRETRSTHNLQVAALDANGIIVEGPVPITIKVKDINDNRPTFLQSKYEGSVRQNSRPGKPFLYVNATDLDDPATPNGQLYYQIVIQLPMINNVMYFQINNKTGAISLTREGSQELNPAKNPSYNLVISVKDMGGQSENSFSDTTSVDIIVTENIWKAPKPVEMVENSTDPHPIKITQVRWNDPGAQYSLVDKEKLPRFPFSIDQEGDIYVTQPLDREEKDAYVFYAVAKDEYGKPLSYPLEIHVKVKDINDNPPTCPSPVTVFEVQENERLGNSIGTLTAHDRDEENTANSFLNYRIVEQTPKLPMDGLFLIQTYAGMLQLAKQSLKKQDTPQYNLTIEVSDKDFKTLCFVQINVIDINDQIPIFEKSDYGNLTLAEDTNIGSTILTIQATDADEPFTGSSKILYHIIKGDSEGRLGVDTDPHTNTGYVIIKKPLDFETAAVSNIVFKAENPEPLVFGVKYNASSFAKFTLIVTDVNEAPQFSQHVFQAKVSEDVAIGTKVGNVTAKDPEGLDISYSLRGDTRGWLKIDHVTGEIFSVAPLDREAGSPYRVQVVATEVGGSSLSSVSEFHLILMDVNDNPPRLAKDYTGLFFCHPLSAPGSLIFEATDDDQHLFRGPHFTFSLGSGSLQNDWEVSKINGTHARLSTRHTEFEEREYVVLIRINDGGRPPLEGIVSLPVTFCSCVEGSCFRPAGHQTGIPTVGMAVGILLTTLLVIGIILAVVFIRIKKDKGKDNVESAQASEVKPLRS
In words: [14C]cephalexin uptake by CHO-K1 transfectant Clone 9 (plasmid pPSJ179).

As for `CC1=C(C(=O)O)N2C(=O)[C@@H](NC(=O)[C@H](N)c3ccccc3)[C@H]2SC1` [cephalexin], the “[14C]-Cephalexin Uptake in presence of unlabelled cephalexin” value in series [1] (Control cells, 1 mM [14C]cephalexin + 25 mM unlabelled cephalexin) is reported as 0.31 ± 0.06 nmol/mg total cell protein; in series [2] (Clone 9, 1 mM [14C]cephalexin + 25 mM unlabelled cephalexin), 0.35 ± 0.09 nmol/mg total cell protein. For the same compound, the “[14C]-Cephalexin Uptake” value in series [1] (Control cells, 1 mM [14C]cephalexin, 2 hours, 37° C., pH 6.0, no competitor) was 0.55 ± 0.09 nmol/mg total cell protein. In series [1] (control cells, bestatin or cephalexin), the “effect on transport of 1 mM [14C]cephalexin by the control cells” value is “not inhibited significantly”. The “effect on uptake of 1 mM cephalexin by the transfectant” value in series [2] (Clone 9, 15 mM bestatin or 25 mM unlabelled cephalexin) was “inhibited”. Further, in series [2] (Clone 9, coincubation with 1 mM [14C]cephalexin), the “drug uptake on coincubation, compared with control cells” value is given as “decreased drug uptake in the representative transfectant (Clone 9) to the level of the control cells”. Further, in series [2] (Clone 9 versus control cells, 1 mM [14C]cephalexin), the “uptake of [14C]cephalexin by transfectant compared with control” value is listed as “significantly higher uptake”.
